Source: patent US8981047B2 (Indiana University Research and Technology Corporation, priority 2007, dated 2015)
At least one compound was matched to its structure with a doubt left. Square brackets hold non-standard residues; d marks the D form. Peptide text beside a SMILES is read from it. Abu(4-SO3H) = N[C@@H](CCS(=O)(=O)O)C(=O)O

Protein sequences, listed by entry. Tags and fused reporters are not part of them. Residues count along the entry.
UniProt P47871, 26-477 limits assumed: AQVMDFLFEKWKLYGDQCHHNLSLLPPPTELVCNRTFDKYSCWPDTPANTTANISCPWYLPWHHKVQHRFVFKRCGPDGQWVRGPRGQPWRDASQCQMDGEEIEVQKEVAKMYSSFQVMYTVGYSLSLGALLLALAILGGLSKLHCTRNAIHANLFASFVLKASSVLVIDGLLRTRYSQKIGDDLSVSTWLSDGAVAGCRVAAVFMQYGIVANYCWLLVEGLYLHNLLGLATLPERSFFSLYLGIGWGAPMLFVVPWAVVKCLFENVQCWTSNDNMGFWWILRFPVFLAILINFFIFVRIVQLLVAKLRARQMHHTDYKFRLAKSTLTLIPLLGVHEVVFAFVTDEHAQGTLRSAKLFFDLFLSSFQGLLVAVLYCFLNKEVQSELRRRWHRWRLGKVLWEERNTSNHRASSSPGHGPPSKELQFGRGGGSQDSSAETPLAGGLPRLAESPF

Molecular target: glucagon receptor (Homo sapiens, UniProt P47871)
Assay: IC50(nM) | Ave. ± SD
Parameters: expressed in transfected cells; host or cells: HEK293

Row | SMILES | IC50
1 | CSCC[C@H](NC(=O)[C@H](CC(C)C)NC(=O)[C@H](Cc1c[nH]c2ccccc12)NC(=O)[C@H](CCC(N)=O)NC(=O)[C@@H](NC(=O)[C@H](Cc1ccccc1)NC(=O)[C@H](CC(=O)O)NC(=O)[C@H](CCC(N)=O)NC(=O)[C@H](C)NC(=O)[C@H](CCCNC(=N)N)NC(=O)[C@H](CCCNC(=N)N)NC(=O)[C@H](CO)NC(=O)[C@H](CC(=O)O)NC(=O)[C@H](CC(C)C)NC(=O)[C@H](Cc1ccc(O)cc1)NC(=O)[C@H](CCCCN)NC(=O)[C@H](CO)NC(=O)[C@H](Cc1ccc(O)cc1)NC(=O)[C@H](CCS(=O)(=O)O)NC(=O)[C@H](CO)NC(=O)[C@@H](NC(=O)[C@@H](N)Cc1ccccc1)[C@@H](C)O)C(C)C)C(=O)N[C@@H](CC(N)=O)C(=O)N[C@H](C(N)=O)[C@@H](C)O [hC9(SO3)G(6-29), [homoCys9(SO3)]G(6-29)] (H-FTS[Abu(4-SO3H)]YSKYLDSRRAQDFVQWLMNT-NH2; N-terminus and C-terminus assumed) | 48.9 ± 24.1 nM
2 | CSCC[C@H](NC(=O)[C@H](CC(C)C)NC(=O)[C@H](Cc1c[nH]c2ccccc12)NC(=O)[C@H](CCC(N)=O)NC(=O)[C@@H](NC(=O)[C@H](Cc1ccccc1)NC(=O)[C@H](CC(=O)O)NC(=O)[C@H](CCC(N)=O)NC(=O)[C@H](C)NC(=O)[C@H](CCCNC(=N)N)NC(=O)[C@H](CCCNC(=N)N)NC(=O)[C@H](CO)NC(=O)[C@H](CC(=O)O)NC(=O)[C@H](CC(C)C)NC(=O)[C@H](Cc1ccc(O)cc1)NC(=O)[C@H](CCCCN)NC(=O)[C@H](CO)NC(=O)[C@H](Cc1ccc(O)cc1)NC(=O)[C@H](CCS(=O)(=O)O)NC(=O)[C@H](CO)NC(=O)[C@@H](NC(=O)[C@H](Cc1ccccc1)NC(=O)[C@@H](NC(=O)CNC(=O)[C@H](CCC(N)=O)NC(=O)[C@@H](N)CO)[C@@H](C)O)[C@@H](C)O)C(C)C)C(=O)N[C@@H](CC(N)=O)C(=O)N[C@H](C(N)=O)[C@@H](C)O [hC9(SO3)G(2-29), [homoCys9(SO3)]G(2-29)] | 37.03 ± 0.24 nM
3 | CSCC[C@H](NC(=O)[C@H](CC(C)C)NC(=O)[C@H](Cc1c[nH]c2ccccc12)NC(=O)[C@H](CCC(N)=O)NC(=O)[C@@H](NC(=O)[C@H](Cc1ccccc1)NC(=O)[C@H](CC(=O)O)NC(=O)[C@H](CCC(N)=O)NC(=O)[C@H](C)NC(=O)[C@H](CCCNC(=N)N)NC(=O)[C@H](CCCNC(=N)N)NC(=O)[C@H](CO)NC(=O)[C@H](CC(=O)O)NC(=O)[C@H](CC(C)C)NC(=O)[C@H](Cc1ccc(O)cc1)NC(=O)[C@H](CCCCN)NC(=O)[C@H](CO)NC(=O)[C@H](Cc1ccc(O)cc1)NC(=O)[C@H](CCS(=O)(=O)O)NC(=O)[C@H](CO)NC(=O)[C@@H](NC(=O)[C@H](Cc1ccccc1)NC(=O)[C@@H](NC(=O)CN)[C@@H](C)O)[C@@H](C)O)C(C)C)C(=O)N[C@@H](CC(N)=O)C(=O)N[C@H](C(N)=O)[C@@H](C)O [hC9(SO3)G(4-29), [homoCys9(SO3)]G(4-29)] (H-GTFTS[Abu(4-SO3H)]YSKYLDSRRAQDFVQWLMNT-NH2; N-terminus and C-terminus assumed) | 37 ± 0.41 nM
